According to the supplement of paper PMC8288183:
This is one part of the list. Many values rest on one well or one pass, so single values are uncertain.

Molecular target: T1, NSUN6 (UniProt Q8TEA1)
T1 sequence: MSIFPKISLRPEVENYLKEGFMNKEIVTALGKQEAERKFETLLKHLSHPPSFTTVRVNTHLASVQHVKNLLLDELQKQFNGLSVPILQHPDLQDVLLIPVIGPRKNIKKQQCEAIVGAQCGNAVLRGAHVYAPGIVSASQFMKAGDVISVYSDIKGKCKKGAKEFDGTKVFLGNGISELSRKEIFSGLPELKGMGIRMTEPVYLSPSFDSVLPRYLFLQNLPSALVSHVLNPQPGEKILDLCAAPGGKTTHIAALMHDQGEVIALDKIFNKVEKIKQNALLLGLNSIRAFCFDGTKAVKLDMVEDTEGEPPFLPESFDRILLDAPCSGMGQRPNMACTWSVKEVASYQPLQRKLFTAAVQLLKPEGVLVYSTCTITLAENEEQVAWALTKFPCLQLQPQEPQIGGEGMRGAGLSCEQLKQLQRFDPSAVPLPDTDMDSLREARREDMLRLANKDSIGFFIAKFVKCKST
Assay: m5C methylation level at the target C (C/(C+U) bisulfite reads) (fraction); higher = more methylation by NSUN6; extreme values may be limits of the assay
Conditions: HEK293T (wild-type)
Procedure: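 High-throughput mutagenesis reporter. About 140 bp oligo-pool variants of four natural Type II m5C substrates (substrate #1 chr15:91425541; #2 RAB15 3'UTR chr14:65413377; #3 SULT2A1 5'UTR chr19:48389569; #4 NAAA CDS chr4:76857361) were cloned as 3'UTR elements of psiCHECK-2 luciferase and transfected into wild-type HEK293T cells. Total RNA was taken 48 h later and m5C level was measured by targeted bisulfite sequencing as C/(C+U) reads at the m5C site (one library).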

[1] = parent substrate: substrate #1 (main figure)

Row | Sequence | m5C methylation level at the target C [1] | m5C methylation level at the target C (parent substrate: substrate #2) | m5C methylation level at the target C (parent substrate: substrate #3) | m5C methylation level at the target C (parent substrate: substrate #4)
1 | UCUGAA | 0 | 0.0034 | 0 | 0
2 | GCAGUA | 0.00191 | 0.0013 | 0.00548 | 0.00223
3 | UCGAGA | 0.00519 | 0.00795 | 0.00131 | 0.00104
4 | UCGCUG | 0.0015 | 0.000949 | 0.0025 | 0.00182
5 | ACAACU | 0 | 0.00271 | 0 | 0.00148
6 | CCUUUC | 0.00138 | 0 | 0 | 0
7 | ACCAAG | 0.00426 | 0 | 0 | 0
8 | ACUAUG | 0 | 0 | 0 | 0.00103
9 | ACACAC | 0.00095 | 0.0012 | 0.00163 | 0.00092
10 | ACUUGU | 0.00248 | 0.00228 | 0 | 0
11 | CCACAC | 0 | 0.00602 | 0.000533 | 0.0106
12 | GCCUAG | 0 | 0.0086 | 0.00365 | 0.00208
13 | CCAUGU | 0 | 0.00277 | 0.00258 | 0.00559
14 | GCAUGG | 0.0039 | 0 | 0.000601 | 0
15 | UCUGCA | 0 | 0.00212 | 0.000775 | 0
16 | UCGACG | 0.00185 | 0.00717 | 0.00467 | 0.0107
17 | GCUCCC | 0.00129 | 0 | 0.00043 | 0.00171
18 | GCGGUC | 0.00175 | 0 | 0.00151 | 0
19 | CCAGGG | 0 | 0 | 0.00774 | 0.00144
20 | UCAGAG | 0.00495 | 0.00252 | 0.000489 | 0
21 | UCCCAU | 0.00083 | 0.00114 | 0.00142 | 0.00123
22 | UCUCUG | 0.00145 | 0.000983 | 0 | 0
23 | CCACAU | 0 | 0 | 0.000505 | 0.000994
24 | ACAAAG | 0 | 0.0271 | 0 | 0.00421

Row | Sequence | m5C methylation level at the target C [1] | m5C methylation level at the target C (parent substrate: substrate #2) | m5C methylation level at the target C (parent substrate: substrate #3) | m5C methylation level at the target C (parent substrate: substrate #4)
25 | CCCGCA | 0.00112 | 0 | 0.00172 | 0
26 | CCUACG | 0.00316 | 0 | 0.000975 | 0
27 | CCGGGU | 0 | 0.00105 | 0.000317 | 0.00152
28 | CCAGUU | 0 | 0 | 0.000394 | 0
29 | ACCAGU | 0 | 0.000623 | 0.00574 | 0.00185
30 | CCACCC | 0.000436 | 0 | 0.000421 | 0
31 | UCACAG | 0.0021 | 0 | 0 | 0.00245
32 | CCGACG | 0.00422 | 0 | 0.00152 | 0.000593
33 | UCUCAG | 0 | 0 | 0.000873 | 0.000684
34 | GCCAGC | 0 | 0.00171 | 0.00168 | 0
35 | UCUACU | 0 | 0.00245 | 0 | 0
36 | CCCCAC | 0.00124 | 0.00162 | 0.00273 | 0.00126
37 | CCCAAU | 0.000771 | 0.00156 | 0.00438 | 0.0039
38 | CCAAUG | 0 | 0 | 0.00208 | 0
39 | ACAUAA | 0.00332 | 0.00195 | 0.00232 | 0.000615
40 | CCGAAA | 0.00163 | 0 | 0.00274 | 0.00239
41 | UCUCGC | 0 | 0.0024 | 0.00054 | 0.00759
42 | GCUUGA | 0.00156 | 0.00549 | 0.00391 | 0.00106
43 | ACGUCC | 0.000699 | 0.00164 | 0 | 0.00643
44 | UCGGCA | 0 | 0 | 0.000397 | 0.00193
45 | ACACGG | 0 | 0 | 0.00325 | 0.000426
46 | CCGUAG | 0 | 0.000745 | 0.00077 | 0.00176
47 | UCCCGG | 0.00056 | 0.00128 | 0.000682 | 0
48 | ACCACG | 0.000572 | 0.00479 | 0.000471 | 0.000756

Row | Sequence | m5C methylation level at the target C [1] | m5C methylation level at the target C (parent substrate: substrate #2) | m5C methylation level at the target C (parent substrate: substrate #3) | m5C methylation level at the target C (parent substrate: substrate #4)
49 | ACACGU | 0.01 | 0 | 0.00171 | 0.00251
50 | ACAUUC | 0 | 0 | 0 | 0
51 | ACACAA | 0 | 0.00306 | 0.000566 | 0
52 | CCUUCU | 0.0049 | 0 | 0 | 0
53 | CCGUAC | 0.000584 | 0.00795 | 0.00221 | 0.00162
54 | UCGCUU | 0.00392 | 0.00179 | 0 | 0.00054
55 | GCAUGC | 0.00188 | 0 | 0.000695 | 0.00415
56 | UCGAAC | 0 | 0 | 0.000475 | 0.00105
57 | CCUUAG | 0 | 0.000682 | 0.000593 | 0
58 | GCAACG | 0.00204 | 0.00464 | 0.0019 | 0.00815
59 | CCCGGG | 0 | 0.00073 | 0 | 0.00146
60 | UCUGCC | 0 | 0.00337 | 0.000971 | 0
61 | CCCAUA | 0.00132 | 0 | 0.000764 | 0.00106
62 | GCUACA | 0.00153 | 0.00281 | 0.000564 | 0.00266
63 | ACCUCA | 0 | 0.00437 | 0.00155 | 0.00335
64 | UCCCUC | 0.0115 | 0.00172 | 0.000887 | 0.00195
65 | ACAGUA | 0.00154 | 0 | 0 | 0
66 | GCCCAA | 0.00129 | 0 | 0.000564 | 0.00152
67 | GCAGCC | 0.000878 | 0.00203 | 0.000699 | 0.000908
68 | ACGGGU | 0.000797 | 0 | 0.000687 | 0.00444
69 | UCAAAC | 0 | 0 | 0 | 0
70 | GCCCAU | 0.000978 | 0.00113 | 0.000779 | 0.000611
71 | UCUCCU | 0.0016 | 0 | 0 | 0
72 | GCCACC | 0.00115 | 0.00753 | 0.00132 | 0.00155

Row | Sequence | m5C methylation level at the target C [1] | m5C methylation level at the target C (parent substrate: substrate #2) | m5C methylation level at the target C (parent substrate: substrate #3) | m5C methylation level at the target C (parent substrate: substrate #4)
73 | CCGAAU | 0 | 0.00398 | 0.000737 | 0.00111
74 | ACACGA | 0 | 0.00226 | 0.00249 | 0
75 | GCAGAU | 0 | 0 | 0 | 0.001
76 | CCCUGG | 0.0031 | 0 | 0.00185 | 0.0017
77 | GCCGGG | 0.000704 | 0.00175 | 0.00111 | 0.00183
78 | ACCGAU | 0 | 0 | 0.00311 | 0
79 | UCGGUU | 0.00787 | 0.000929 | 0 | 0.00131
80 | UCGAUG | 0 | 0.00101 | 0.00374 | 0.00303
81 | UCGAUC | 0.000457 | 0 | 0.00179 | 0
82 | GCGCUU | 0 | 0.00909 | 0.00199 | 0.000881
83 | CCGACU | 0 | 0.00506 | 0.00111 | 0.00788
84 | CCCUUG | 0 | 0.00198 | 0.00155 | 0.00579
85 | UCGGGC | 0.00334 | 0.00408 | 0.00132 | 0
86 | GCGAGA | 0.00237 | 0.000672 | 0.00123 | 0.00311
87 | GCGCUG | 0.00307 | 0 | 0.00197 | 0.000521
88 | GCGUCU | 0 | 0.000942 | 0.00545 | 0.00229
89 | GCCGGC | 0.00111 | 0.00164 | 0.00169 | 0.000399
90 | UCGUAC | 0.00134 | 0 | 0.000507 | 0.00772
91 | UCGUGC | 0.017 | 0.000912 | 0.00179 | 0.00323
92 | GCGGCG | 0.00131 | 0.00252 | 0.00203 | 0
93 | UCAAAU | 0 | 0 | 0 | 0

A few values from above.
In m5C methylation level at the target C (parent substrate: substrate #2), UCUCCU has the entry 0
In m5C methylation level at the target C [1], GCAUGG has the entry 0.0039
In m5C methylation level at the target C (parent substrate: substrate #3), CCCAUA has the entry 0.000764
In m5C methylation level at the target C (parent substrate: substrate #4), CCCUUG has the entry 0.00579
In m5C methylation level at the target C (parent substrate: substrate #2), GCGUCU has the entry 0.000942
